Reference: US20170306005A1 (NASCIENT, published 2017)
Numbering of substitutions follows the chain as printed. Names may count otherwise. These are yes or no findings as the source states them, for the method shown. Some results given as binding are weak or reduced against the parent protein; the word gives no strength. For some of these results: Tags and fused reporters may be left off the sequences shown. Values belong to the binder of their own block, whether it stands above or below them.

Key:
[1] = target: T1, mouse TNC FBG-rCD4 (mouse; rat) (UniProt P05540); test: ELISA (DELFIA), antigen coated on the well, purified Fab at 50 nM, detected with anti-kappa or anti-lambda mAb and Europium-conjugated anti-mouse mAb
T1 sequence: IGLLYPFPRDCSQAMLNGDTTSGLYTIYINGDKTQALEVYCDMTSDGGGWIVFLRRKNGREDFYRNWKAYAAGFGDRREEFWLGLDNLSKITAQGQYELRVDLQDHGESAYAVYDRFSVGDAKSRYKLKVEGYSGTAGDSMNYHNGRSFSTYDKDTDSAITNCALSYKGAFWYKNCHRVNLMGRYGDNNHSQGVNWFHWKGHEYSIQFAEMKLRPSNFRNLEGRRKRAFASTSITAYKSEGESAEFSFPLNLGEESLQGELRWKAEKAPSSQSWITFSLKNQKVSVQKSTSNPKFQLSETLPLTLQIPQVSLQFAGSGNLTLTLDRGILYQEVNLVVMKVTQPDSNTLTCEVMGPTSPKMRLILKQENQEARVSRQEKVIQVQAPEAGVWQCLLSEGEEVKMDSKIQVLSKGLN

[2] = target: T2, dog TNC FBG-rCD4 (dog; rat) (UniProt P05540); test: as above
T2 sequence: T1 sequence with I29L, T34A, S89H, Q104R, E108K, S109T, S124T, N142A, Y152F

[3] = target: T3, rat TNC FBG-rCD4 (rat) (UniProt P05540); test: as above
T3 sequence: T1 sequence with A72T

[4] = target: T4, mouse tenascin-C rCd4-His-FBG (rat; mouse, UniProt P05540 207-392, limits assumed); test: SPR, captured Fab, 25 C
T4 construct: domain: domains 3 and 4; C-terminal FBG fusion; biotinylated in the ELISA screen; also called Mu TNC; mouse TNC rCd4-His-FBG; not shown: 6His tag
T4 sequence (chain (part 1 of 2)): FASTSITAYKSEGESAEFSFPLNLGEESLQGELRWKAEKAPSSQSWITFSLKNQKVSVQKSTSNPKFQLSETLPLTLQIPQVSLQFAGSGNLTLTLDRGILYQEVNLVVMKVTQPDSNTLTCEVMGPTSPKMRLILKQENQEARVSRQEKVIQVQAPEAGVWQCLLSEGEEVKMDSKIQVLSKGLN
T4 sequence (chain (part 2 of 2)): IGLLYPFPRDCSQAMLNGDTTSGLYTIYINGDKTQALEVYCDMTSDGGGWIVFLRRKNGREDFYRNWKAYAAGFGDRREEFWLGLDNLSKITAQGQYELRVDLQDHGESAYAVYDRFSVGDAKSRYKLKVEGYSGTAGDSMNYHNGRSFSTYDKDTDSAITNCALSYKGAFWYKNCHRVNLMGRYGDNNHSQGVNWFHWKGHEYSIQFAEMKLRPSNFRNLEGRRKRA
Description: (§1) Experiments were performed using a BIAcore T100 instrument with CM5 sensor chip according to the protocol provided with the Human Fab Capture Kit (GE, 28-9583-25). […] After reference signal subtraction, the data was fitted to a global 1:1 fit using the T100 BIAevaluation software (FIGS. 6 a-d).

[5] = target: T1, mouse TNC FBG-rCD4 (mouse; rat); test: ELISA, coated FBG-rCD4, purified Fab
[6] = target: T2, dog TNC FBG-rCD4 (dog; rat); test: ELISA, coated FBG-rCD4, purified Fab
[7] = target: T5, human TNR FBG-rCd4 (human; rat) (UniProt P05540); test: ELISA, coated FBG-rCD4, purified Fab
T5 sequence: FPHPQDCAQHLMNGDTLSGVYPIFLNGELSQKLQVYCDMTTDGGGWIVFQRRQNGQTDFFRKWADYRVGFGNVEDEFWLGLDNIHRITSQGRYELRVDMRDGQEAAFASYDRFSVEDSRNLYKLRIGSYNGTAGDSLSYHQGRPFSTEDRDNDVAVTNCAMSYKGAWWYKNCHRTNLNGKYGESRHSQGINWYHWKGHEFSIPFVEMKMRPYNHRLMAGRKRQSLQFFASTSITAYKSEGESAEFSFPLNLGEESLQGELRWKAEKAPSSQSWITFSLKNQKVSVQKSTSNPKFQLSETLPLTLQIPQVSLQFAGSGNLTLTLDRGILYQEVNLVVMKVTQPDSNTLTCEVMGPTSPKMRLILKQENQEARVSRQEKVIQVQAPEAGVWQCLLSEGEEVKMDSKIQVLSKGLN

[8] = target: T3, rat TNC FBG-rCD4 (rat); test: ELISA, coated FBG-rCD4, purified Fab
[9] = target: T5, human TNR FBG-rCd4 (human; rat); test: ELISA (DELFIA), antigen coated on the well, purified Fab at 50 nM, detected with anti-kappa or anti-lambda mAb and Europium-conjugated anti-mouse mAb
[10] = target: T6, rat tenascin-C rCd4-His-FBG (rat, UniProt P05540 207-392, limits assumed); test: SPR, captured Fab, 25 C
T6 construct: domain: domains 3 and 4; C-terminal FBG fusion; also called Rat TNC; rat TNC rCD4-His-FBG; not shown: 6His tag
T6 sequence (chain (part 1 of 2)): T4 sequence (chain (part 1 of 2))
T6 sequence (chain (part 2 of 2)): T4 sequence (chain (part 2 of 2)) with A72T
Description: as §1

[11] = target: endogenous tenascin-C in human RA knee synovium (human) (UniProt P24821); test: immunohistochemistry, RA synovium sections
[12] = target: T7, human tenascin-C rCd4-His-FBG (rat; human, UniProt P05540 207-392, limits assumed); test: SPR, captured purified IgG4, 37 C
T7 construct: domain: domains 3 and 4; C-terminal FBG fusion; biotinylated in the ELISA and HTRF screens; also called Hu TNC; human TNC rCd4-His-FBG; not shown: 6His tag
T7 sequence (chain (part 1 of 2)): T4 sequence (chain (part 1 of 2))
T7 sequence (chain (part 2 of 2)): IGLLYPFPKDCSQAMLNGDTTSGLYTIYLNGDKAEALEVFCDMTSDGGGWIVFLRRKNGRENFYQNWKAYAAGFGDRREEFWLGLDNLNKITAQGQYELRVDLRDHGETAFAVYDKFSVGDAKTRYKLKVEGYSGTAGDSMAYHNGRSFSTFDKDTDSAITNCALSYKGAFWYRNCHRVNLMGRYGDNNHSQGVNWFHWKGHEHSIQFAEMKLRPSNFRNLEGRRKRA
Description: (§2) Detailed kinetic parameters were evaluated for the 9 prioritised IgG4 antibodies. Binding characteristics were determined for interaction with human, rat and dog TNC rCD4-His-FBG, and human TNR rCD4-His-FBG. Kinetic assays followed essentially the same protocols as for the off-rate determinations described above, with some modifications as follows. […] Purified anti-FBG IgG4 was diluted to a concentration of 3.5 nM in PBS, pH 7.4, 0.05% Tween-20 and injected into FC2 at a flow rate of 10 μl/min, 60 s contact time. […] Antigens were prepared by doubling dilution in PBS, pH 7.4, 0.05% Tween-20 (highest concentration 100 nM except mouse rCD4-His-FBG which was 7 nM). Assays were performed at 37° C. (30 μl/min, 120 s contact time; mouse rCD4-His-FBGFBG 10 μl/min, 60 s contact time), with both the flow cell and injection chamber equilibrated to this temperature. As before, kinetic parameters were determined by reference cell subtraction and fitting the sensogram experimental data assuming a 1:1 interaction using BIAevaluation software (GE, BR-1005-97).

[13] = target: T4, mouse tenascin-C rCd4-His-FBG; test: SPR, captured purified IgG4, 37 C
Description: as §2

binding [1]: binds
binding [2]: binds
binding [3]: binds
binding [4]: binds
binding [5]: binds
binding [6]: binds
binding [7]: binds
binding [8]: binds
B1: Fab F3 (Fab, V domains shown)
VH: EVQLLESGGGLVQPGGSLRLSCAASGFTFSSYGMHWVRQAPGKGLEWVAVISYDGSNKYYADSVKGRFTISRGNSKNTLYLQMNSLKAEDTAVYYCAREGYDQLFSAESNAFDIWGQGTLVTVSS
VL: NFMLAQPHSVSESPGKTVTISCTRSSGSIASYFVQWFQQRPGSAPTAVIYEDNQRPSGVPDRFSGSIDSSSNSASLTISGLKTEDEADYYCQSYDSSNWVFGGGTKVTVLG
notes: monomeric Fab

binding [1]: binds
binding [2]: binds
binding [9]: binds
binding [3]: binds
binding [4]: binds
binding [10]: binds
binding [5]: binds
binding [6]: binds
binding [7]: binds
binding [8]: binds
B2: Fab B12 (Fab, V domains shown)
VH: QVQLVESGGGLVQPGRSLRLSCAASGFTFDDYAMHWVRQAPGKGLEWVSGISGSGGSTYYADSVKGRFTISRDNAKNSLYLQMNSLRAEDTALYYCAKDISAVPDTFDIWGQGTMVTVSS
VL: DIQMTQSPASLPTPVGDRVTITCRASQYIQGFLNWYQQKPGKAPKLLIYDASNLETGVPSRFSGSGSGTDFTLTISSLQPEDFATYYCQQSYSTPQTFGQGTKVDIKR
notes: monomeric Fab

binding [11]: binds
B3: B12 formatted as mouse IgG2a (antibody, V domains shown)
VH: B2 VH
VL: B2 VL

binding [1]: binds
binding [2]: binds
binding [3]: binds
binding [4]: binds
binding [5]: binds
binding [6]: binds
binding [7]: binds
binding [8]: binds
B4: Fab D8 (Fab, V domains shown)
VH: EVQLVQSGAEVKKPGASVKVSCKASGYTFTSYGISWVRQAPGQGLEWMGWISAYNGNTNYAQKLQGRVTMTTDTSTSTAYMELRSLRSDDTAVYYCARNQDSSSDYWGQGTLVTVSS
VL: B2 VL with P14S, P95L
notes: monomeric Fab

binding [12]: binds
binding [13]: binds
B5: 165_13_B1 human IgG4 (antibody, V domains shown)
VH: B2 VH with D99V, I100M, A102S, V103M, P104E, T106A
VL: B2 VL
notes: human IgG4 with hinge S241P

binding [12]: binds
binding [13]: binds
B6: 160_01_A4 human IgG4 (antibody, V domains shown)
VH: EVRLVQSGAEVKKPGASVKVSCKVSGYTLTELSMHWVRQAPGKGLEWMGGFDPEDGETIYAQKFQGRVTMTEDTSTDTAYMELSSLRSEDTAVYYCATAQKETLGNAIWGQGTLVTVSS
VL: B2 VL with P14S, K45R, D50A, N53T, E55Q, T56D, S67Y, Q96W, D105E
notes: human IgG4 with hinge S241P; also called Antibody 160 01 A4 (derived from 2A5)
